Data on one molecule can be found in article PMC9108500.

The chains behind the UniProt entries cited, without tags or fusion partners.
UniProt P46937: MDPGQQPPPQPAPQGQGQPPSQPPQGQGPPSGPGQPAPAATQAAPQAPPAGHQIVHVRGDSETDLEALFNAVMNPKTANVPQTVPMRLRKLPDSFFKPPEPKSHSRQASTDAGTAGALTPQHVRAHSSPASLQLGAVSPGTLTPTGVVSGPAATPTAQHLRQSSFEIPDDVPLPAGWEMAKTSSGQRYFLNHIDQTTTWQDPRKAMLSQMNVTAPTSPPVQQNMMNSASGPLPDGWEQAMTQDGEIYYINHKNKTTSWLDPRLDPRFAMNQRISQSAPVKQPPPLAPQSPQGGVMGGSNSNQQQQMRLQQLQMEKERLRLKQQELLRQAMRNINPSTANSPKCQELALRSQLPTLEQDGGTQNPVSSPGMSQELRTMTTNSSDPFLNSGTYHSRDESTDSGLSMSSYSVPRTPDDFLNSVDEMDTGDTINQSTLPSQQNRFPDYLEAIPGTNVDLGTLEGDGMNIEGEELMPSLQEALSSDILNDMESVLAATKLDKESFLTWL

No constants are given. Whether binding was seen depends on the method and setting. Binding seen in cells or lysates may run through a third protein. Some entries that bind do so weakly or less than the wild type. Tags and fused reporters may be left off the sequences shown.

This test deals with Myc tagged yes-associated protein1 (Myc-YAP1) (UniProt P46937). The experiment in a line: co-IP; 293T cells co-transfected with Myc-YAP1 and V5-LSR (WT or Y623A); after 24 hours lysates were incubated with the antibody against the Myc tag for one hour, then protein G agarose for three hours, then western blot; the paper calls it a pull-down assay.

B1: V5 tagged lipolysis-stimulated lipoprotein receptor, wild type (V5-LSR-WT) (protein, UniProt Q86X29 1-649)
chain: MQQDGLGVGTRNGSGKGRSVHPSWPWCAPRPLRYFGRDARARRAQTAAMALLAGGLSRGLGSHPAAAGRDAVVFVWLLLSTWCTAPARAIQVTVSNPYHVVILFQPVTLPCTYQMTSTPTQPIVIWKYKSFCRDRIADAFSPASVDNQLNAQLAAGNPGYNPYVECQDSVRTVRVVATKQGNAVTLGDYYQGRRITITGNADLTFDQTAWGDSGVYYCSVVSAQDLQGNNEAYAELIVLGRTSGVAELLPGFQAGPIEDWLFVVVVCLAAFLIFLLLGICWCQCCPHTCCCYVRCPCCPDKCCCPEALYAAGKAATSGVPSIYAPSTYAHLSPAKTPPPPAMIPMGPAYNGYPGGYPGDVDRSSSAGGQGSYVPLLRDTDSSVASEVRSGYRIQASQQDDSMRVLYYMEKELANFDPSRPGPPSGRVERAMSEVTSLHEDDWRSRPSRGPALTPIRDEEWGGHSPRSPRGWDQEPAREQAGGGWRARRPRARSVDALDDLTPPSTAESGSRSPTSNGGRSRAYMPPRSRSRDDLYDQDDSRDFPRSRDPHYDDFRSRERPPADPRSHHHRTRDPRDNGSRSGDLPYDGRLLEEAVRKKGSEERRRPHKEEEEEAYYPPAPPPYSETDSQASRERRLKKNLALSRESLVV
As to B1, the binding entry was “binds”.
